Where a name gives a salt, the structure may show the parent alone. This is one part of the list. The calls rarely recur for the same compound in another form.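 In K562 cells expressing nanoluciferase-fused kinases, luminescence was recorded at 4 h intervals between 2 and 18 h, normalized as percent of control with DMSO at 100% and a positive control at 0%. A significant (2 sigma) signal drop marks a time point as decreased. The authors' rule for a hit is not shown and takes in more than the number of time points.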
How the values were obtained:
Details in all cases: K562; 2-18 h
STK38 = STK38 (UniProt Q15208); assay: kinase-Nluc reporter destabilization hit call (1 = scored as downregulated) (binary); higher = compound decreases kinase abundance
SYK = SYK (UniProt P43405); assay: as above
TEC = TEC (UniProt P42680); assay: as above
TYK2 = TYK2 (UniProt P29597); assay: as above
ULK3 = ULK3 (UniProt Q6PHR2); assay: as above
YES1 = YES1 (UniProt P07947); assay: as above
ZAK = ZAK (UniProt Q9NYL2); assay: as above
ZAP70 = ZAP70 (UniProt P43403); assay: as above
ABL1 = ABL1 (UniProt P00519); assay: number of time points (of 5) at which kinase-Nluc abundance scored as decreased, DMSO-normalised (count); higher = more persistent destabilization
AKT1 = AKT1 (UniProt P31749); assay: as above
ALK = ALK (UniProt Q9UM73); assay: as above
ARAF = ARAF (UniProt P10398); assay: as above
AURKA = AURKA (UniProt O14965); assay: as above
AURKB = AURKB (UniProt Q96GD4); assay: as above
AURKC = AURKC (UniProt Q9UQB9); assay: as above
BLK = BLK (UniProt P51451); assay: as above
BMX = BMX (UniProt P51813); assay: as above
BRAF = BRAF (UniProt P15056); assay: as above
BRAF_V600E = assay: as above
BTK = BTK (UniProt Q06187); assay: as above

Sequences of proteins named here, by UniProt entry; tags and fusion partners are left off. A change or cut given only in a name is not applied to a line headed by its entry.
UniProt Q15208: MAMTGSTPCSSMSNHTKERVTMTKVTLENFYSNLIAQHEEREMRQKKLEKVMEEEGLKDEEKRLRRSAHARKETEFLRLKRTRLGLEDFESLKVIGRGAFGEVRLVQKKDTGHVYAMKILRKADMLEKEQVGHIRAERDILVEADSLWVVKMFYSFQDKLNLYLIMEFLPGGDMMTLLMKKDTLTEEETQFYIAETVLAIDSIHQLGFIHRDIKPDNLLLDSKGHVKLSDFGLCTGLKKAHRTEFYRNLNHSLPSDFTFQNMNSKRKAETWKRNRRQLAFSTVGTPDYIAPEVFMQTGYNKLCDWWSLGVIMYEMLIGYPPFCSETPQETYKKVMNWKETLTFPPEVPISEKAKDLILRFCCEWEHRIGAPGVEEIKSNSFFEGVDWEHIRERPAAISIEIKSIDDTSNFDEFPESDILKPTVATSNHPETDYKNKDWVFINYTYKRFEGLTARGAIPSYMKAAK
UniProt P42680: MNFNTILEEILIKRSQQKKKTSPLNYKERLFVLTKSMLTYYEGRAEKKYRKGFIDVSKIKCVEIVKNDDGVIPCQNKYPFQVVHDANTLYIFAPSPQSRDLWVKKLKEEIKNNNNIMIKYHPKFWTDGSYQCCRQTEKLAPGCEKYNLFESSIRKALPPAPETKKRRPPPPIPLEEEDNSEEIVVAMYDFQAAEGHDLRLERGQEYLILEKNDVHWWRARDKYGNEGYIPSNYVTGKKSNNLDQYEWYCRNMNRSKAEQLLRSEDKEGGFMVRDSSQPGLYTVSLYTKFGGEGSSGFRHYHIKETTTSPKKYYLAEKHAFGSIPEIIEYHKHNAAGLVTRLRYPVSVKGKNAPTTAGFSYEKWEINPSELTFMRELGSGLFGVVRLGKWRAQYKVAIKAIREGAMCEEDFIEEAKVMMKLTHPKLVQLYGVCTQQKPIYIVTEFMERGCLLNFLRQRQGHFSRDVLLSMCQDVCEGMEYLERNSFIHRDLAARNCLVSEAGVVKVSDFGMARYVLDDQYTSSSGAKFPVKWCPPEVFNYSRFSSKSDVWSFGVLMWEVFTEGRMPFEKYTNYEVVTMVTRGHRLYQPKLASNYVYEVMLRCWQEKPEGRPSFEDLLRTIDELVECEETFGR
UniProt P29597: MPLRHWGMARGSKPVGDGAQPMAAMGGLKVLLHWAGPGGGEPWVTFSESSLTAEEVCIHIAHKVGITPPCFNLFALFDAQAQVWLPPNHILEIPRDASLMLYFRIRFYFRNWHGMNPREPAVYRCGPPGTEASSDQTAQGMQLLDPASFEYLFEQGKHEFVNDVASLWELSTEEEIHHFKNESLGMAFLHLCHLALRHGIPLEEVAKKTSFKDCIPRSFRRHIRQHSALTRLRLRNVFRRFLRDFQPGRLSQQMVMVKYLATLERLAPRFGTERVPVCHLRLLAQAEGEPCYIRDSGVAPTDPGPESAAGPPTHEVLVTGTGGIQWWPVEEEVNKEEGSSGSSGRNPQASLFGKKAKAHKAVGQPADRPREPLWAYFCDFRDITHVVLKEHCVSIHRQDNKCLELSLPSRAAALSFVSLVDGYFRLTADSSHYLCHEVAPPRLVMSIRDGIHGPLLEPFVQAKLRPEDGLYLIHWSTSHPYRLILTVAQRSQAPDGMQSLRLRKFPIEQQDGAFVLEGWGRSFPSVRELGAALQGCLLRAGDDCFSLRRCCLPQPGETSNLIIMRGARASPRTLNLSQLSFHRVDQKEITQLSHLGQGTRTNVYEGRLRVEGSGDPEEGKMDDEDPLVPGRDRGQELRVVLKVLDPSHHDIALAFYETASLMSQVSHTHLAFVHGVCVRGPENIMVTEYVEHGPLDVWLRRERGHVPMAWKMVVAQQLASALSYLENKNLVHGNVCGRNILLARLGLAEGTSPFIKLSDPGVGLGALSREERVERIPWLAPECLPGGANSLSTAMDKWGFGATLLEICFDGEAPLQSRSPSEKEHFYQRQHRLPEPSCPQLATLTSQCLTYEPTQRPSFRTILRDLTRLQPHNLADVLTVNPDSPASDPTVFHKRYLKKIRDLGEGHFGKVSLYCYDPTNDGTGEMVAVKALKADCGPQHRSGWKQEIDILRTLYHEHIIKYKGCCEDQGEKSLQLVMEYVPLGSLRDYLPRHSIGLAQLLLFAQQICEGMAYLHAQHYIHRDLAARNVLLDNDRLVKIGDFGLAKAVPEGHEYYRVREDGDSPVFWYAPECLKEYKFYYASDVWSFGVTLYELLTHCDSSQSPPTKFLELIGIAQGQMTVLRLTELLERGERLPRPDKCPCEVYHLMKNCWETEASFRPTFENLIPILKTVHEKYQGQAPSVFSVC
UniProt P07947, whole entry, looked up: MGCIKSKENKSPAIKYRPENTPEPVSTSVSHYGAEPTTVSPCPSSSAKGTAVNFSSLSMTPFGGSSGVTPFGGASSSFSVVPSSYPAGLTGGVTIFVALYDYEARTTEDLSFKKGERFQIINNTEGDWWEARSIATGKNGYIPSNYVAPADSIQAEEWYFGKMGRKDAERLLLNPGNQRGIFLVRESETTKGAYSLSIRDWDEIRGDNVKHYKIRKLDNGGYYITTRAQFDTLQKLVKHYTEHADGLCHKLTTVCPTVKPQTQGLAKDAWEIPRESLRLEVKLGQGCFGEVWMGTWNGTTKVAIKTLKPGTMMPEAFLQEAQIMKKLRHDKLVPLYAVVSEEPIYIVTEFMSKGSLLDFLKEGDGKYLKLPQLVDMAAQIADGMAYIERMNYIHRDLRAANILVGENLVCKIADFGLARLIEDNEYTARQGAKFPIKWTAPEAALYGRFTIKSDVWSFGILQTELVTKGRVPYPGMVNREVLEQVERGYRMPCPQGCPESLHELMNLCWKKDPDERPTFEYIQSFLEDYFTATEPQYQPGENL
UniProt P00519, whole entry: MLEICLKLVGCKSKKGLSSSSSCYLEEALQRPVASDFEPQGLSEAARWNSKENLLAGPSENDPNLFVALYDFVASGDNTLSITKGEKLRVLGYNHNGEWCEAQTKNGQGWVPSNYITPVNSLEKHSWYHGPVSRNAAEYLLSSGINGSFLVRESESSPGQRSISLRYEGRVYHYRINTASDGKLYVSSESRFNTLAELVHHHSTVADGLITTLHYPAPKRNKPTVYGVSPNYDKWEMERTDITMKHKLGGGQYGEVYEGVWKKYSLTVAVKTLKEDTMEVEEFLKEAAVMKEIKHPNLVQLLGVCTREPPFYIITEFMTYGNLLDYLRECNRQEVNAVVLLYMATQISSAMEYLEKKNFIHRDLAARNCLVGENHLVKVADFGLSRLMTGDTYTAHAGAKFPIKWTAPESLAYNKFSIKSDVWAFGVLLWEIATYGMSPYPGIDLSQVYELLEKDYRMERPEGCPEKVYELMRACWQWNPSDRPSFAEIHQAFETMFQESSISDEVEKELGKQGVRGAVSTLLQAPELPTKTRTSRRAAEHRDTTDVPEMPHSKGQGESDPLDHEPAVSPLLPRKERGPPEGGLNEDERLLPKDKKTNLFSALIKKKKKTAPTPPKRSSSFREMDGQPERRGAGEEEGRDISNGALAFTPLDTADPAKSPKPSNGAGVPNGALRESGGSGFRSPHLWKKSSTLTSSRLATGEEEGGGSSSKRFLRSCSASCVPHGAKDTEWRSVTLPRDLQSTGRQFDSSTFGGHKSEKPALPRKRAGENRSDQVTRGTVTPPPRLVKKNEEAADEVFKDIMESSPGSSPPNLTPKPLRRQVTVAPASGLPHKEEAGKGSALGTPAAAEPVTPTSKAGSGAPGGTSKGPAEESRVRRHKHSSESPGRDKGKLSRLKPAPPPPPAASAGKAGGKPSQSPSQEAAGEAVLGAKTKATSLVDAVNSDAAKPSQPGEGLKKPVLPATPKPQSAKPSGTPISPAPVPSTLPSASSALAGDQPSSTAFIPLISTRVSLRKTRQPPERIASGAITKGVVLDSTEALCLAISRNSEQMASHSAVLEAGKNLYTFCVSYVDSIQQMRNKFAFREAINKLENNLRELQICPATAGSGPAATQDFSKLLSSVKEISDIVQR
UniProt Q9UM73: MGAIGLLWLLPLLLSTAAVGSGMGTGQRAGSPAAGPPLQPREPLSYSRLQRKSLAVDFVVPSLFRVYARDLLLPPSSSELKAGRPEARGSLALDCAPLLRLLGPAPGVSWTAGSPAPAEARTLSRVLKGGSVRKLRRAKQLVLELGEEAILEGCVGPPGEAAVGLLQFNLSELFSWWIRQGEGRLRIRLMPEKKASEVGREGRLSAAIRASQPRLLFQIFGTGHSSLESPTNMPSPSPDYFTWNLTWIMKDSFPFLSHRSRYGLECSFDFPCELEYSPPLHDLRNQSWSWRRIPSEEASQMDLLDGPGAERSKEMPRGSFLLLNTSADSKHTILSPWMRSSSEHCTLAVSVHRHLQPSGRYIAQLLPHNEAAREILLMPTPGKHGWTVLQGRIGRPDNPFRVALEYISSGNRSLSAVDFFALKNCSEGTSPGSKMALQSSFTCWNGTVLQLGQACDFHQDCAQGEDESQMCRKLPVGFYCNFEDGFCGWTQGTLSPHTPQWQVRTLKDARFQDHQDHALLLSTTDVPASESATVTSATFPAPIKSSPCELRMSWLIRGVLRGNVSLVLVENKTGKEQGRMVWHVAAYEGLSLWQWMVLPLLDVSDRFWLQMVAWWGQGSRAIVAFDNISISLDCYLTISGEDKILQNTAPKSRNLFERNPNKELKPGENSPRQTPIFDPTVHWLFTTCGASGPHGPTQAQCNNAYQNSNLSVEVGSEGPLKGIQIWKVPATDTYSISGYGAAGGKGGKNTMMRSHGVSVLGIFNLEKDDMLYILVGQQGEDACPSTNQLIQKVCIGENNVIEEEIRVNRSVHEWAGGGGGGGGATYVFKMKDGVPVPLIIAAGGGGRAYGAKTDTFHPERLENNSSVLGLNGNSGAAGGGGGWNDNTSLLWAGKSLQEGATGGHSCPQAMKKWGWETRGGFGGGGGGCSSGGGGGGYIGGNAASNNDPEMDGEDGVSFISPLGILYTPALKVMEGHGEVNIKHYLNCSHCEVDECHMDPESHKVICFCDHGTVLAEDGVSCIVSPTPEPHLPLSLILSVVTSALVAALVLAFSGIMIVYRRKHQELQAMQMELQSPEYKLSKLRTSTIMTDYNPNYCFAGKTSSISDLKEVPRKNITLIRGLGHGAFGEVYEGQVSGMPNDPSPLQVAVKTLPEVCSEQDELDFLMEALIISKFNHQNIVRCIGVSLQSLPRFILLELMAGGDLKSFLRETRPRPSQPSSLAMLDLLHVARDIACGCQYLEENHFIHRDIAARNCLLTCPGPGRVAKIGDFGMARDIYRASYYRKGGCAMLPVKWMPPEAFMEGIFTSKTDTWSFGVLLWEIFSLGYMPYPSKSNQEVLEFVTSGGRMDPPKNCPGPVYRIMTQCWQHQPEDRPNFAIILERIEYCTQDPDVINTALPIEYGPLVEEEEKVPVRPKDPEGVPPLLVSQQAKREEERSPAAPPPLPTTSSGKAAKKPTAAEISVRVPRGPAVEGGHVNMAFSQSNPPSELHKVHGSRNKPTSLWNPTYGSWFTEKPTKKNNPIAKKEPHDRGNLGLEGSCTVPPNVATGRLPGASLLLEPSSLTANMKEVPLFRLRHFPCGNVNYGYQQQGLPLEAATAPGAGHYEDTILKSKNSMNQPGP
UniProt P10398: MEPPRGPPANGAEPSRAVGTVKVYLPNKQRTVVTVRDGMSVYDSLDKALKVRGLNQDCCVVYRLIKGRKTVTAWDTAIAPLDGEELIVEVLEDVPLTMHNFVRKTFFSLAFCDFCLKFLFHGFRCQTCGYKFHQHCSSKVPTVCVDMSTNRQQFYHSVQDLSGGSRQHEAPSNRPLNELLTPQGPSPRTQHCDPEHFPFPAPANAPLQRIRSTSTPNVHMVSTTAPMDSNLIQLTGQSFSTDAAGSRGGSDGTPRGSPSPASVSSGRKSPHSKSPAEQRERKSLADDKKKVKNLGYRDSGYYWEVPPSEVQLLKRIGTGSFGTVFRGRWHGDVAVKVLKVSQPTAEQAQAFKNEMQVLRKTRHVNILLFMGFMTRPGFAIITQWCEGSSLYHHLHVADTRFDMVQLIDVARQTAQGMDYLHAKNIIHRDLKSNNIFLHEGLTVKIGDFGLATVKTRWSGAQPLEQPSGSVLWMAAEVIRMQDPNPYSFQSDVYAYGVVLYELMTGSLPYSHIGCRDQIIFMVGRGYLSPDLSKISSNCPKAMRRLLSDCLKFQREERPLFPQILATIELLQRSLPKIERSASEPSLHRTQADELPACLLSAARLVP
UniProt Q9UQB9: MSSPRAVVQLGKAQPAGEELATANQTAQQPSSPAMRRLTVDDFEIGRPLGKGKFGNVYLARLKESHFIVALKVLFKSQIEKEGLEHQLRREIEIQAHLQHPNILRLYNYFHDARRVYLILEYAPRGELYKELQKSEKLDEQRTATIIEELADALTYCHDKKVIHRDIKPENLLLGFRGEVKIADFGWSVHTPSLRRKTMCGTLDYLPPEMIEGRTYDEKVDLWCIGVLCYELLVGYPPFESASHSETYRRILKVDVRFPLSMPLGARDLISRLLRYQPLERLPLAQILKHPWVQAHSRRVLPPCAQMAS

Cc1cc(-n2c(=O)ccc3c[nH]c4nccc-4c32)ccc1F (10 µM)
0: number of time points (AKT1) | number of time points (ALK) | number of time points (ARAF) | number of time points (AURKA) | number of time points (AURKB) | number of time points (AURKC) | number of time points (BLK) | number of time points (BMX) | number of time points (BRAF) | number of time points (BRAF_V600E) | number of time points (BTK)
1: number of time points (ABL1)
inactive: kinase-Nluc reporter destabilization hit call (STK38) 0 | kinase-Nluc reporter destabilization hit call (SYK) 0 | kinase-Nluc reporter destabilization hit call (TEC) 0 | kinase-Nluc reporter destabilization hit call (TYK2) 0 | kinase-Nluc reporter destabilization hit call (ULK3) 0 | kinase-Nluc reporter destabilization hit call (YES1) 0 | kinase-Nluc reporter destabilization hit call (ZAK) 0 | kinase-Nluc reporter destabilization hit call (ZAP70) 0

COC(=O)/C=C/c1ccccc1 [Methyl cinnamate] (10 µM)
inactive: kinase-Nluc reporter destabilization hit call (STK38) 0 | kinase-Nluc reporter destabilization hit call (SYK) 0 | kinase-Nluc reporter destabilization hit call (TEC) 0 | kinase-Nluc reporter destabilization hit call (TYK2) 0 | kinase-Nluc reporter destabilization hit call (ULK3) 0 | kinase-Nluc reporter destabilization hit call (YES1) 0 | kinase-Nluc reporter destabilization hit call (ZAK) 0 | kinase-Nluc reporter destabilization hit call (ZAP70) 0
0: number of time points (ABL1) | number of time points (AKT1) | number of time points (ALK) | number of time points (ARAF) | number of time points (AURKA) | number of time points (AURKB) | number of time points (AURKC) | number of time points (BLK) | number of time points (BMX) | number of time points (BRAF) | number of time points (BRAF_V600E) | number of time points (BTK)

NS(=O)(=O)c1ccc(Nc2nc(-c3cccc(-c4ccccc4)c3)c3[nH]cnc3n2)cc1 (10 µM)
inactive: kinase-Nluc reporter destabilization hit call (STK38) 0 | kinase-Nluc reporter destabilization hit call (SYK) 0 | kinase-Nluc reporter destabilization hit call (TEC) 0 | kinase-Nluc reporter destabilization hit call (TYK2) 0 | kinase-Nluc reporter destabilization hit call (ULK3) 0 | kinase-Nluc reporter destabilization hit call (YES1) 0 | kinase-Nluc reporter destabilization hit call (ZAK) 0 | kinase-Nluc reporter destabilization hit call (ZAP70) 0
0: number of time points (ABL1) | number of time points (AKT1) | number of time points (ALK) | number of time points (ARAF) | number of time points (AURKA) | number of time points (AURKB) | number of time points (AURKC) | number of time points (BLK) | number of time points (BMX) | number of time points (BRAF) | number of time points (BRAF_V600E) | number of time points (BTK)

O=C1NC(=O)/C(=C\c2c[nH]c(=O)c(-c3ccc(N4CCNCC4)nc3)c2)S1 [Protein kinase inhibitors 1 hydrochloride] (10 µM)
0: number of time points (ABL1) | number of time points (AKT1) | number of time points (ALK) | number of time points (ARAF) | number of time points (AURKA) | number of time points (AURKB) | number of time points (AURKC) | number of time points (BLK) | number of time points (BMX) | number of time points (BRAF) | number of time points (BRAF_V600E) | number of time points (BTK)
inactive: kinase-Nluc reporter destabilization hit call (STK38) 0 | kinase-Nluc reporter destabilization hit call (SYK) 0 | kinase-Nluc reporter destabilization hit call (TEC) 0 | kinase-Nluc reporter destabilization hit call (TYK2) 0 | kinase-Nluc reporter destabilization hit call (ULK3) 0 | kinase-Nluc reporter destabilization hit call (YES1) 0 | kinase-Nluc reporter destabilization hit call (ZAK) 0 | kinase-Nluc reporter destabilization hit call (ZAP70) 0

CO[C@H]1C[C@@H]2CC[C@@H](C)[C@@](O)(O2)C(=O)C(=O)N2CCCC[C@H]2C(=O)O[C@H]([C@H](C)C[C@@H]2CC[C@@H](OC(=O)C(C)(CO)CO)[C@H](OC)C2)CC(=O)[C@H](C)/C=C(\C)[C@@H](O)[C@@H](OC)C(=O)[C@H](C)C[C@H](C)/C=C/C=C/C=C/1C [Temsirolimus] (2.5 µM)
inactive: kinase-Nluc reporter destabilization hit call (STK38) 0 | kinase-Nluc reporter destabilization hit call (SYK) 0 | kinase-Nluc reporter destabilization hit call (TEC) 0 | kinase-Nluc reporter destabilization hit call (TYK2) 0 | kinase-Nluc reporter destabilization hit call (ULK3) 0 | kinase-Nluc reporter destabilization hit call (YES1) 0 | kinase-Nluc reporter destabilization hit call (ZAK) 0 | kinase-Nluc reporter destabilization hit call (ZAP70) 0
0: number of time points (ABL1) | number of time points (AKT1) | number of time points (ALK) | number of time points (ARAF) | number of time points (AURKA) | number of time points (AURKB) | number of time points (AURKC) | number of time points (BLK) | number of time points (BMX) | number of time points (BRAF) | number of time points (BRAF_V600E) | number of time points (BTK)

COc1cc(F)ccc1-c1ncnc(Nc2cccc(C[S@](C)(=N)=O)c2)n1 [Atuveciclib] (2.5 µM)
3: number of time points (AURKA) | number of time points (BMX)
1: number of time points (ABL1)
2: number of time points (ALK) | number of time points (BLK) | number of time points (BRAF_V600E)
0: number of time points (AKT1) | number of time points (ARAF) | number of time points (AURKB) | number of time points (AURKC) | number of time points (BRAF) | number of time points (BTK)
inactive: kinase-Nluc reporter destabilization hit call (STK38) 0 | kinase-Nluc reporter destabilization hit call (SYK) 0 | kinase-Nluc reporter destabilization hit call (TEC) 0 | kinase-Nluc reporter destabilization hit call (TYK2) 0 | kinase-Nluc reporter destabilization hit call (ULK3) 0 | kinase-Nluc reporter destabilization hit call (YES1) 0 | kinase-Nluc reporter destabilization hit call (ZAK) 0 | kinase-Nluc reporter destabilization hit call (ZAP70) 0

O=C1Nc2ccc(CN3C(=O)CSC3=O)cc2/C1=C/c1cc(CN2CCOCC2)c[nH]1 (10 µM)
inactive: kinase-Nluc reporter destabilization hit call (STK38) 0 | kinase-Nluc reporter destabilization hit call (SYK) 0 | kinase-Nluc reporter destabilization hit call (TEC) 0 | kinase-Nluc reporter destabilization hit call (TYK2) 0 | kinase-Nluc reporter destabilization hit call (ULK3) 0 | kinase-Nluc reporter destabilization hit call (YES1) 0 | kinase-Nluc reporter destabilization hit call (ZAK) 0 | kinase-Nluc reporter destabilization hit call (ZAP70) 0
0: number of time points (ABL1) | number of time points (AKT1) | number of time points (ALK) | number of time points (ARAF) | number of time points (AURKA) | number of time points (AURKB) | number of time points (AURKC) | number of time points (BLK) | number of time points (BMX) | number of time points (BRAF) | number of time points (BRAF_V600E) | number of time points (BTK)

Nc1nc(NCCNc2ncc(-n3ccnc3)c(-c3ccc(Cl)cc3Cl)n2)ccc1[N+](=O)[O-] (2.5 µM)
inactive: kinase-Nluc reporter destabilization hit call (STK38) 0 | kinase-Nluc reporter destabilization hit call (SYK) 0 | kinase-Nluc reporter destabilization hit call (TEC) 0 | kinase-Nluc reporter destabilization hit call (TYK2) 0 | kinase-Nluc reporter destabilization hit call (ULK3) 0 | kinase-Nluc reporter destabilization hit call (YES1) 0 | kinase-Nluc reporter destabilization hit call (ZAK) 0 | kinase-Nluc reporter destabilization hit call (ZAP70) 0
1: number of time points (BRAF_V600E)
4: number of time points (ABL1) | number of time points (ALK)
0: number of time points (AKT1) | number of time points (ARAF) | number of time points (AURKA) | number of time points (AURKB) | number of time points (AURKC) | number of time points (BLK) | number of time points (BMX) | number of time points (BRAF) | number of time points (BTK)

Reference: the supplement of paper PMC12823440, “Inhibitors supercharge kinase turnover through native proteolytic circuits” (Nature, 2025)
